Reference: article PMC12853606
These are yes or no findings as the source states them, for the method shown. Binding seen in cells or lysates may run through a third protein. Some results given as binding are weak or reduced against the parent protein; the word gives no strength.

The chains behind the UniProt entries cited, without tags or fusion partners.
UniProt P25786: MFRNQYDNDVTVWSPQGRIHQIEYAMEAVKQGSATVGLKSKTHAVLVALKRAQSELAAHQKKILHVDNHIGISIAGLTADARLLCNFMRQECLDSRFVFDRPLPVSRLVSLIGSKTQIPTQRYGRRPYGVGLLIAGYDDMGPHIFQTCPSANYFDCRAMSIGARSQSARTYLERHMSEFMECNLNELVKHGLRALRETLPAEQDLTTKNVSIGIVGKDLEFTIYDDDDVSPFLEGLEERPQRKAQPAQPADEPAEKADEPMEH
UniProt O95751: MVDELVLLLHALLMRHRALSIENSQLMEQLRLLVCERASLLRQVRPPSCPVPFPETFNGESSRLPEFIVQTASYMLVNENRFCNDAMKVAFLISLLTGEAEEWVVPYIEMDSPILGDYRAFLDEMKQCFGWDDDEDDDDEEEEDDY

Columns and labels:
[1] = molecular target: proteasome subunit alpha type 1 (PSMA1) (human (endogenous in A549)) (UniProt P25786); experiment: co-IP; A549 cell lysate (Pierce IP lysis buffer), pre-cleared with control IgG and protein A/G magnetic beads; primary antibody or control IgG 2 h at 4 °C, beads overnight at 4 °C; immunoblotting; endogenous proteins
[2] = molecular target: T1, THAP Domain Containing 12 (THAP12) (human (endogenous in A549)) (UniProt O43422); experiment: as above
T1 sequence: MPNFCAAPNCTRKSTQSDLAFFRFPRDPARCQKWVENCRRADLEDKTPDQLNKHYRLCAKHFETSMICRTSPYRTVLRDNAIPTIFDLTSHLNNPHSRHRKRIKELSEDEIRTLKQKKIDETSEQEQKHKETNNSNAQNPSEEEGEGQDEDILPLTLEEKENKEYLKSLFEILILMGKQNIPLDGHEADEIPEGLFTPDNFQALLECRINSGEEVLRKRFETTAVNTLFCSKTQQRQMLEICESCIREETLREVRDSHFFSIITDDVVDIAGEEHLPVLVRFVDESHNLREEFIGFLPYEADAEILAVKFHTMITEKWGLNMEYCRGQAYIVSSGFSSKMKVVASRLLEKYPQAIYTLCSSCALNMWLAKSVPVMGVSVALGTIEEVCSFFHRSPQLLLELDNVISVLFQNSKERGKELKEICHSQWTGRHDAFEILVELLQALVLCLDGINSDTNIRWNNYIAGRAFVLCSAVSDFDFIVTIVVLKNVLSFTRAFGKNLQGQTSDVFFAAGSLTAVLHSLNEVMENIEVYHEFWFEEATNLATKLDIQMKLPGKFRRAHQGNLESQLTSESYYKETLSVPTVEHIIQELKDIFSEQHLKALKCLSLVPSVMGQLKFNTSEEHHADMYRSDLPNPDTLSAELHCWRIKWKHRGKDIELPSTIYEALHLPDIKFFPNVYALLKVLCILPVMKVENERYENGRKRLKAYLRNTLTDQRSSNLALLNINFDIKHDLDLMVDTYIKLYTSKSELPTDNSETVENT

[3] = molecular target: proteasome subunit alpha type 1 (PSMA1) (human (endogenous in A549)) (UniProt P25786); experiment: proximity ligation; Duolink in situ PLA on fixed (4% paraformaldehyde), permeabilised A549 cells; primary antibodies against LDOC1 and its partner overnight at 4 °C; confocal imaging; for THAP12 also A549-shCtrl-1 and A549-shLDOC1-1 cells
[4] = molecular target: T1, THAP Domain Containing 12 (THAP12) (human (endogenous in A549)); experiment: as above

Measured: binding

Leucine zipper downregulated in cancer 1 (LDOC1) (from UniProt O95751 1-146)
binds: all assays above
